This is one part of the list. Single values are uncertain, as repeats are few or missing.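 Imaging used 1,536-well plates; nuclei positive for cleaved PARP by antibody were divided by total DNA-stained nuclei to yield the apoptosis fraction. Doses for screening kept most cells viable, and cell lines differ markedly in resting and induced cleaved-PARP levels.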
Columns and labels:
Assay in all cases: cleaved PARP positive nuclei fraction relative to DMSO control; melanoma cells; higher = more apoptosis
Conditions in all cases: library dose: low library concentration; 72 h
[1] = system: WM115
[2] = system: WM1716
[3] = system: WM1745
[4] = system: WM3526
[5] = system: WM3619
[6] = system: WM451Lu

| Compound | cleaved PARP positive nuclei fraction [1] [%] | cleaved PARP positive nuclei fraction [2] [%] | cleaved PARP positive nuclei fraction [3] [%] | cleaved PARP positive nuclei fraction [4] [%] | cleaved PARP positive nuclei fraction [5] [%] | cleaved PARP positive nuclei fraction [6] [%] |
| --- | --- | --- | --- | --- | --- | --- |
| Nc1cccc2c1CN(C1CCC(=O)NC1=O)C2=O (stereo unspecified) [lenalidomide] + COc1cc(Nc2ncc(F)c(Nc3ccc4c(n3)NC(=O)C(C)(C)O4)n2)cc(OC)c1OC [Tamatinib] (first compound 1 µM, partner dose 0.4 µM) | 158 | 62 | 155 | 55.9 | 89.4 | 56.1 |
| COCC[n+]1c2c(n(Cc3cnccn3)c1C)C(=O)c1ccccc1C2=O + Oc1cc(-c2nc(-c3ccccc3)[nH]c2-c2ccncc2)ccc1Cl [L779450] (first compound 0.0004 µM, partner dose 0.2 µM) | 153 | 122 | 109 | 259 | 142 | 86.8 |
| Clc1ccc(Nc2nnc(Cc3ccncc3)c3ccccc23)cc1 [vatalanib] + CCN(CC)CCCCNc1ncc2cc(-c3cc(OC)cc(OC)c3)c(NC(=O)NC(C)(C)C)nc2n1 [PD173074] (first compound 2 µM, partner dose 0.1 µM) | 100 | 79 | 102 | 453 | 79.2 | 65.2 |
| Cn1cncc1[C@@](N)(c1ccc(Cl)cc1)c1ccc2c(c1)c(-c1cccc(Cl)c1)cc(=O)n2C [tipifarnib] + COc1ccc(COc2ccc(Cc3cnc(N)nc3N)cc2OC)cc1 [GW2580] (first compound 0.01 µM, partner dose 1 µM) | 198 | 87.9 | 113 | 148 | 89.7 | 25 |
| C#Cc1cccc(Nc2ncnc3cc(OCCOC)c(OCCOC)cc23)c1 [erlotinib] + COc1ccc2c(c1)CCC1C2CCC2(C)C(NCCCCCCN3C(=O)C=CC3=O)CCC12 [U73122] (first compound 0.8 µM, partner dose 0.4 µM) | 45.8 | 131 | 116 | 66.7 | 88.8 | 230 |
| C#Cc1cccc(Nc2ncnc3cc(OCCOC)c(OCCOC)cc23)c1 [erlotinib] + CCc1ccc(CCOc2ccc(CC3SC(=O)NC3=O)cc2)nc1 [pioglitazone] (first compound 0.8 µM, partner dose 2 µM) | 128 | 58.3 | 140 | 160 | 115 | 109 |
| O=C(CCCCCCC(=O)Nc1ccccc1)NO [vorinostat] + C=CCn1c(=O)c2cnc(Nc3ccc(N4CCN(C)CC4)cc3)nc2n1-c1cccc(C(C)(C)O)n1 [MK1775] (first compound 0.08 µM, partner dose 0.02 µM) | 137 | 75.5 | 102 | 59.4 | 97.6 | 65 |
| Cn1cncc1[C@@](N)(c1ccc(Cl)cc1)c1ccc2c(c1)c(-c1cccc(Cl)c1)cc(=O)n2C [tipifarnib] + CCc1ccc(CCOc2ccc(CC3SC(=O)NC3=O)cc2)nc1 [pioglitazone] (first compound 0.01 µM, partner dose 2 µM) | 85.4 | 91.6 | 111 | 65.2 | 91.8 | 143 |
| Cc1cc(N2CCOCC2)cc2[nH]c(-c3c(NC[C@@H](O)c4cccc(Cl)c4)cc[nH]c3=O)nc12 + O=S(=O)(c1ccccc1)N(CC(F)(F)F)c1ccc(C(O)(C(F)(F)F)C(F)(F)F)cc1 [T0901317] (first compound 0.2 µM, partner dose 1.4 µM) | 89.8 | 112 | 143 | 133 | 121 | 169 |
| CC1(C)NC(=O)N(c2ccc([N+](=O)[O-])c(C(F)(F)F)c2)C1=O [nilutamide] + Cc1cc(N2CCOCC2)cc2[nH]c(-c3c(NC[C@@H](O)c4cccc(Cl)c4)cc[nH]c3=O)nc12 [BMS536924] (first compound 1 µM, partner dose 0.2 µM) | 105 | 217 | 129 | 62.8 | 88.7 | 112 |
| CC(=O)c1c(C)c2cnc(Nc3ccc(N4CCNCC4)cn3)nc2n(C2CCCC2)c1=O [palbociclib] + Cc1cc([N+](=O)[O-])ccc1NS(=O)(=O)c1cc(Cl)ccc1Cl [FH535] (first compound 0.04 µM, partner dose 1 µM) | 127 | 278 | 121 | 141 | 123 | 83.2 |
| C#Cc1cccc(Nc2ncnc3cc(OCCOC)c(OCCOC)cc23)c1 [erlotinib] + CCCCCCCCCCCC1=C(O)C(=O)C=C(O)C1=O [Embelin] (first compound 0.8 µM, partner dose 1.2 µM) | 187 | 144 | 126 | 67.8 | 83.8 | 118 |
| Cn1c(Nc2ccc(C(F)(F)F)cc2)nc2cc(Oc3ccnc(-c4ncc(C(F)(F)F)[nH]4)c3)ccc21 + CC(C)(C)c1cnc(CSc2cnc(NC(=O)C3CCNCC3)s2)o1 [SNS-032] (first compound 0.08 µM, partner dose 0.01 µM) | 1540 | 188 | 150 | 253 | 148 | 63.9 |
| NC(=O)Nc1cc(-c2cccc(F)c2)sc1C(=O)N[C@H]1CCCNC1 + COc1cc(N2CCC(N3CCN(C)CC3)CC2)ccc1Nc1ncc(Cl)c(Nc2ccccc2S(=O)(=O)C(C)C)n1 [NVP-TAE684] (first compound 0.02 µM, partner dose 0.08 µM) | 104 | 114 | 120 | 68.5 | 189 | 72.3 |
| C[C@@H]1CCN(C(=O)CC#N)C[C@@H]1N(C)c1ncnc2[nH]ccc12 + O=c1cc(-c2cccc3c2Sc2ccccc2S3)oc(N2CCOCC2)c1 [KU55933] (first compound 1 µM, partner dose 1 µM) | 593 | 52.3 | 93.4 | 612 | 95 | 46.6 |
| CC1(C)NC(=O)N(c2ccc([N+](=O)[O-])c(C(F)(F)F)c2)C1=O [nilutamide] + NCC(=O)Nc1ccc(-n2nc(C(F)(F)F)cc2-c2ccc3c(ccc4ccccc43)c2)cc1 [OSU03012] (first compound 1 µM, partner dose 1 µM) | 51 | 75.1 | 88 | 100 | 104 | 104 |
| Cn1cncc1[C@@](N)(c1ccc(Cl)cc1)c1ccc2c(c1)c(-c1cccc(Cl)c1)cc(=O)n2C [tipifarnib] + COC(=O)c1sccc1S(=O)(=O)Nc1ccc(Nc2ccccc2)cc1OC [GSK0660] (first compound 0.01 µM, partner dose 1 µM) | 157 | 127 | 90.6 | 39.2 | 84.2 | 35.6 |
| C=CCNC1=C2C[C@@H](C)C[C@H](OC)[C@H](O)[C@@H](C)/C=C(\C)[C@H](OC(N)=O)[C@@H](OC)/C=C\C=C(/C)C(=O)NC(=CC1=O)C2=O [Tanespimycin] + COc1ccc(-c2ccc3c(N4CCOCC4)nc(N4C[C@@H](C)O[C@@H](C)C4)nc3n2)cc1CO [KU0063794] (first compound 0.002 µM, partner dose 0.02 µM) | 156 | 148 | 88.9 | 78.9 | 105 | 137 |
| O=C(CCCCCCC(=O)Nc1ccccc1)NO [vorinostat] + CN(C)S(=O)(=O)c1ccc2c(c1)/C(=C/c1cc3c([nH]1)CCCC3)C(=O)N2 [SU6656] (first compound 0.08 µM, partner dose 0.4 µM) | 107 | 65.2 | 84.5 | 217 | 94.6 | 66.1 |
| OCc1c[nH]c2ccccc12 [Indole-3-carbinol] + CC(C)CCN1c2nc(Nc3cc(F)c(O)c(F)c3)ncc2N(C)C(=O)C1C [BID1870] (first compound 0.8 µM, partner dose 0.2 µM) | 153 | 106 | 90.6 | 163 | 85.9 | 78.5 |
| C=CCn1c(=O)c2cnc(Nc3ccc(N4CCN(C)CC4)cc3)nc2n1-c1cccc(C(C)(C)O)n1 + O=C(Nc1ccccc1)c1cc([N+](=O)[O-])ccc1Cl [GW9662] (first compound 0.02 µM, partner dose 2 µM) | 137 | 87.6 | 118 | 63.4 | 290 | 34.6 |
| C=CCNC1=C2C[C@@H](C)C[C@H](OC)[C@H](O)[C@@H](C)/C=C(\C)[C@H](OC(N)=O)[C@@H](OC)/C=C\C=C(/C)C(=O)NC(=CC1=O)C2=O [Tanespimycin] + CN(C)S(=O)(=O)c1ccc2c(c1)/C(=C/c1cc3c([nH]1)CCCC3)C(=O)N2 [SU6656] (first compound 0.002 µM, partner dose 0.4 µM) | 900 | 73.9 | 142 | 38.2 | 209 | 100 |
| C[C@]1(c2nc3c(C(N)=O)cccc3[nH]2)CCCN1 [Veliparib] + COc1cc2c(Oc3ccc4[nH]c(C)cc4c3F)ncnc2cc1OCCCN1CCCC1 [cediranib] (first compound 1.4 µM, partner dose 0.4 µM) | 111 | 35.3 | 99.3 | 58.2 | 88.3 | 139 |
| OCCn1cc(-c2cnc3nnn(Cc4ccc5ncccc5c4)c3n2)cn1 + Oc1nc(-c2ccc(C(F)(F)F)cc2)nc2c1CSCC2 [XAV939] (first compound 1 µM, partner dose 2 µM) | 447 | 371 | 111 | 28.4 | 75.8 | 557 |
| Cn1cncc1[C@@](N)(c1ccc(Cl)cc1)c1ccc2c(c1)c(-c1cccc(Cl)c1)cc(=O)n2C [tipifarnib] + CCN(CC)CCCCNc1ncc2cc(-c3cc(OC)cc(OC)c3)c(NC(=O)NC(C)(C)C)nc2n1 [PD173074] (first compound 0.01 µM, partner dose 0.1 µM) | 57.7 | 152 | 101 | 73.5 | 168 | 650 |
| OCCn1cc(-c2cnc3nnn(Cc4ccc5ncccc5c4)c3n2)cn1 + COc1cc(N2CCC(N3CCN(C)CC3)CC2)ccc1Nc1ncc(Cl)c(Nc2ccccc2S(=O)(=O)C(C)C)n1 [NVP-TAE684] (first compound 1 µM, partner dose 0.08 µM) | 102 | 94.8 | 112 | 88.9 | 93.6 | 397 |

A run of entries of the results above:

| Compound | cleaved PARP positive nuclei fraction [1] [%] | cleaved PARP positive nuclei fraction [2] [%] | cleaved PARP positive nuclei fraction [3] [%] | cleaved PARP positive nuclei fraction [4] [%] | cleaved PARP positive nuclei fraction [5] [%] | cleaved PARP positive nuclei fraction [6] [%] |
| --- | --- | --- | --- | --- | --- | --- |
| Cn1cncc1[C@@](N)(c1ccc(Cl)cc1)c1ccc2c(c1)c(-c1cccc(Cl)c1)cc(=O)n2C [tipifarnib] + CCN(CC)CCCCNc1ncc2cc(-c3cc(OC)cc(OC)c3)c(NC(=O)NC(C)(C)C)nc2n1 [PD173074] (first compound 0.01 µM, partner dose 0.1 µM) | 57.7 | 152 | 101 | 73.5 | 168 | 650 |
| OCCn1cc(-c2cnc3nnn(Cc4ccc5ncccc5c4)c3n2)cn1 + COc1cc(N2CCC(N3CCN(C)CC3)CC2)ccc1Nc1ncc(Cl)c(Nc2ccccc2S(=O)(=O)C(C)C)n1 [NVP-TAE684] (first compound 1 µM, partner dose 0.08 µM) | 102 | 94.8 | 112 | 88.9 | 93.6 | 397 |

From the supplement of paper PMC4604168 (melanoma cell lines)
